Data: patent US20140193432A1
Positions count from the first letter of the chain named. Names and notes keep the numbering of the source. No constants are given. Whether binding was seen depends on the method and setting. Some results given as binding are weak or reduced against the parent protein; the word gives no strength. Each block holds one binder with its values, some of them ahead of it.

The chains behind the UniProt entries cited, without tags or fusion partners. Where a name states a change or a piece, a line headed by the entry shows the natural chain unless it says otherwise.
UniProt P80370: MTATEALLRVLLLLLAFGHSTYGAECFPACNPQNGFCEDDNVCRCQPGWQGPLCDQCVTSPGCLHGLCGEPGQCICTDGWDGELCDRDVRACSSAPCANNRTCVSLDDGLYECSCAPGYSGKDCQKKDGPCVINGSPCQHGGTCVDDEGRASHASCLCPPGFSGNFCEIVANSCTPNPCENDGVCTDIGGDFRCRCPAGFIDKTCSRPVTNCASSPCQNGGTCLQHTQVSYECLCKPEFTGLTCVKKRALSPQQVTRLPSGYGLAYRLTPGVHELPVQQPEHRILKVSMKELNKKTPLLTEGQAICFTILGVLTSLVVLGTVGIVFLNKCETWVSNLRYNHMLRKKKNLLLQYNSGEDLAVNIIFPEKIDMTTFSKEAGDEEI

Legend:
[1] = target: recombinant protein of the hDlk-1 extracellular region (hDlk-1-His) (human) (UniProt P80370); assay: ELISA first format: antibody coated at 1 µg/ml, hDlk-1-His titrated from 1 µg/ml, anti-His-HRP detection (monovalent)
[2] = target: recombinant protein of the hDlk-1 extracellular region (hDlk-1-His) (human) (UniProt P80370); assay: ELISA third format: hDlk-1-His coated at 0.05 µg/ml, antibody titrated from 5 µg/ml
[3] = target: recombinant protein of the hDlk-1 extracellular region (hDlk-1-His) (human) (UniProt P80370); assay: summary of the three ELISA formats
[4] = target: recombinant protein of the hDlk-1 extracellular region (hDlk-1-His) (human) (UniProt P80370); assay: ELISA third format: hDlk-1-His coated at 0.05 µg/ml, purified antibodies
[5] = target: recombinant protein of the hDlk-1 extracellular region (hDlk-1-His) (human) (UniProt P80370); assay: antigen-immobilized ELISA, hDlk-1-His coated at 3 µg/ml, antibody at 0.1 µg/ml after incubation in cynomolgus monkey plasma at 37° C.
[6] = target: recombinant protein of the hDlk-1 extracellular region (hDlk-1-His) (human) (UniProt P80370); assay: antigen-immobilized ELISA, hDlk-1-His coated at 3 µg/ml, antibody at 0.001 to 1 µg/ml
[7] = target: recombinant protein of the hDlk-1 extracellular region (hDlk-1-His) (human) (UniProt P80370); assay: ELISA third format: hDlk-1-His coated at 0.05 µg/ml, HEK293 culture supernatants

B2: HuBA-1-3D-1-A24G/T73K (antibody, human IgG1, kappa, V domains shown)
VH: QVQLVQSGAEVKKPGASVKVSCKGSGYTFTDYAMHWVRQAPGQGLEWIGVISTYYGNTNYNQKFKGKATMTVDKSTSTAYMELRSLRSDDTAVYYCARGGLREYYYAMDYWGQGTMVTVSS
VL: DIVMTQSPDSLAVSLGERATINCKSSQSLLNSSNQKNYLAWYQQKPGQPPKLLVYFASTRESGVPDRFSGSGSGTDFTLTISSLQAEDVAVYYCQQHYSTPPTFGQGTKLEIKR
binding [5]: binds
binding [6]: binds
binding [7]: binds

B4: HuBA-1-3D-1-T73K (antibody, human IgG1, kappa, V domains shown)
VH: B2 VH with G24A
VL: B2 VL
binding [7]: binds
binding [4]: binds

B5: humanized BA-1-3D IgG1/κ antibody (HuBA-1-3D-2) (antibody, V domains shown)
VH: B2 VH with G24A, K67R, K74T
VL: B2 VL
binding [1]: binds
binding [2]: binds
binding [3]: binds
binding [7]: binds

Further lines, results first:

binding [1]: binds
binding [2]: binds
binding [3]: binds
binding [4]: binds
B1: humanized BA-1-3D IgG1/κ antibody (HuBA-1-3D-1) (antibody, V domains shown)
VH: B2 VH with G24A, K74T
VL: B2 VL

binding [7]: binds
B3: HuBA-1-3D-1-A24G (antibody, human IgG1, V domains shown)
VH: B2 VH with K74T
VL: DIVMTQSPDSLAVSLGERATINCKSSQSLLNSSNQKNYLAWYQQKPGQPPKLLVYFASTRESGVPDRFSGSGSGTDFTLTISSLQAEDVAVYYCQQHYSTPPTFGQGTKLEIK
